Experimental data as given in paper PMC12280033.
Results are given in words; binding and its absence hold for the method and conditions named. In cells and extracts the contact can be indirect. Some entries that bind do so weakly or less than the wild type.

Amino acid sequences for entries named in this document (tags omitted).
UniProt P40763: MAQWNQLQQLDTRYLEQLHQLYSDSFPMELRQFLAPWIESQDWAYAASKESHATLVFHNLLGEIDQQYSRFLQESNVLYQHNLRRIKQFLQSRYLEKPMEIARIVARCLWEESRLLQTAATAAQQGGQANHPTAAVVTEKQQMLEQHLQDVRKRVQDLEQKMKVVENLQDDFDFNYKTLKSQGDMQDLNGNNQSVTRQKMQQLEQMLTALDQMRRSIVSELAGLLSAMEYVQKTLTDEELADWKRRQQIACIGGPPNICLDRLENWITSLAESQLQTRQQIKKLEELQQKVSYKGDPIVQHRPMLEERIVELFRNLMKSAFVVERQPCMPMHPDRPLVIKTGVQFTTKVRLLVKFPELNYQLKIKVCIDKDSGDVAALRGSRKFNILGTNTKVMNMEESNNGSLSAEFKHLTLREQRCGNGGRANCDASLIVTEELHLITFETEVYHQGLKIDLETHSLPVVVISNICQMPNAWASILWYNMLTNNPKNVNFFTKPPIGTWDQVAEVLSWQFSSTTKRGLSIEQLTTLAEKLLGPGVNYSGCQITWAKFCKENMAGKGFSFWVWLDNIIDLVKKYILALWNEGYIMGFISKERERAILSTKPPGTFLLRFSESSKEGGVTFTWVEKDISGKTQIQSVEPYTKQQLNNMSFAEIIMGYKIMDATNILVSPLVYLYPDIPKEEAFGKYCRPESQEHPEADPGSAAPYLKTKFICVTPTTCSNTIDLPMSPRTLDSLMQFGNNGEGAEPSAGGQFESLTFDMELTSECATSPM
UniProt Q9UPU5: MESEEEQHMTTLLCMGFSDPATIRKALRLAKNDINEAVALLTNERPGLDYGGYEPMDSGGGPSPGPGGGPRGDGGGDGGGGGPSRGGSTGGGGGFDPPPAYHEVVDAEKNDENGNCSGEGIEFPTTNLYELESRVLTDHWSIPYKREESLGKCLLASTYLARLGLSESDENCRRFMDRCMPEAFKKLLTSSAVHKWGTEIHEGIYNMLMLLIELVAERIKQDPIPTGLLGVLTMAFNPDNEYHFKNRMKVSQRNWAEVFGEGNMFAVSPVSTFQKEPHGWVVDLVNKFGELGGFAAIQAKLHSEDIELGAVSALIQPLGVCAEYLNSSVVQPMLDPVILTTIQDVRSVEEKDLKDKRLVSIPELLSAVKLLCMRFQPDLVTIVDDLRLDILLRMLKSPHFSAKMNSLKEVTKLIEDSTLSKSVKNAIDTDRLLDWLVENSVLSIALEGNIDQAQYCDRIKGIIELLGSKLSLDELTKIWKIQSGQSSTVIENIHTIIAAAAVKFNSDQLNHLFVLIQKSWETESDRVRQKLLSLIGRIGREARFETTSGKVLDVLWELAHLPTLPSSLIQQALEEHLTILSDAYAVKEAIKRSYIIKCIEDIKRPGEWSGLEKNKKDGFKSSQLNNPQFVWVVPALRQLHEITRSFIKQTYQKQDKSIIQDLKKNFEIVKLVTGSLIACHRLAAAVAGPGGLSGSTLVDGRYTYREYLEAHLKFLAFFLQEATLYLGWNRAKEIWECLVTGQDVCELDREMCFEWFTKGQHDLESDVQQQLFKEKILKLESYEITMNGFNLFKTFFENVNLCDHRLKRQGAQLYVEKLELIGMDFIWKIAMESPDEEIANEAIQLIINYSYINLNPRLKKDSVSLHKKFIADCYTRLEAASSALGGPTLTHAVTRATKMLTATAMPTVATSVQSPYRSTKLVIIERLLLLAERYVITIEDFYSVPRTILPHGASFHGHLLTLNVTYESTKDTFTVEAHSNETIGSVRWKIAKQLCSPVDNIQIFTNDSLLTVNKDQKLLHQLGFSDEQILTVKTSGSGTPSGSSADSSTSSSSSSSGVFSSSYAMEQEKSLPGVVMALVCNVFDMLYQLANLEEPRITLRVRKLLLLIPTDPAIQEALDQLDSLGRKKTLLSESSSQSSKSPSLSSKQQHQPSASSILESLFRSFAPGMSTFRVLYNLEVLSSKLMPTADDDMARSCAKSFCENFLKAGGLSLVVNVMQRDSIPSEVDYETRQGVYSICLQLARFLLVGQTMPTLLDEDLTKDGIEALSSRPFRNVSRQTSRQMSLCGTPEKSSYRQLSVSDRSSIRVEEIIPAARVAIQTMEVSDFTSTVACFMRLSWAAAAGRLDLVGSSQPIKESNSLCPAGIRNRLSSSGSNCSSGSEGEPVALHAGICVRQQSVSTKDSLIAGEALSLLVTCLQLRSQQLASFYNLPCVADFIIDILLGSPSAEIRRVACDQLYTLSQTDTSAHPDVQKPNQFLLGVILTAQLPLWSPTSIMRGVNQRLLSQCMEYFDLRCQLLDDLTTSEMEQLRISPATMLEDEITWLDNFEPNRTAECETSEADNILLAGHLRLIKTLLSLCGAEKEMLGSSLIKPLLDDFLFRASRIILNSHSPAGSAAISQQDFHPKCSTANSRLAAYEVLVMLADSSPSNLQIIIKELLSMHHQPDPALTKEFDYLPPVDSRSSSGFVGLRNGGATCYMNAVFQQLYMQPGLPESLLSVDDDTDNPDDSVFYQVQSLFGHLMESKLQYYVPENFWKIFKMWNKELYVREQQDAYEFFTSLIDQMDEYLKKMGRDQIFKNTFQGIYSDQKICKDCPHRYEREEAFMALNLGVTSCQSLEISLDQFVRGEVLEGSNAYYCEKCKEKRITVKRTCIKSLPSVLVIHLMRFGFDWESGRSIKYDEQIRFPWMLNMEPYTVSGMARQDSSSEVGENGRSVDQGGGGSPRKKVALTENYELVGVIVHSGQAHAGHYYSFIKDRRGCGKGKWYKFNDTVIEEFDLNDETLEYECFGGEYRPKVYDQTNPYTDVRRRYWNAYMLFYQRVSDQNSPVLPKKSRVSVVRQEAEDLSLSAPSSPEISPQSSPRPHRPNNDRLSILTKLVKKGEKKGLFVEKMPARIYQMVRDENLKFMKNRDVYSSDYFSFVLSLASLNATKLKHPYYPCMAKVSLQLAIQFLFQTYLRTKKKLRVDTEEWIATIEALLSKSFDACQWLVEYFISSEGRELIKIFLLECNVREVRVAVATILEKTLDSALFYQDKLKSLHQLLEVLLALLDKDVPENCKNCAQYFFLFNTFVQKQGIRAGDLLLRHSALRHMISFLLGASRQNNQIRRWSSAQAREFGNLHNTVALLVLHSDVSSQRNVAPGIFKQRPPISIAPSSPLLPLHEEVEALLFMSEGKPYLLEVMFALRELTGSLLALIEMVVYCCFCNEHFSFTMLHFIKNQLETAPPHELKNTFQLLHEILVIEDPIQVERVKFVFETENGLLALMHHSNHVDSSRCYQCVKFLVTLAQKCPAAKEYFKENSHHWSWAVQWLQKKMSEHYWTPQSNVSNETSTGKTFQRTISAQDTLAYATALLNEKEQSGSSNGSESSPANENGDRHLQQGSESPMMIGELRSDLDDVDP
UniProt Q93008: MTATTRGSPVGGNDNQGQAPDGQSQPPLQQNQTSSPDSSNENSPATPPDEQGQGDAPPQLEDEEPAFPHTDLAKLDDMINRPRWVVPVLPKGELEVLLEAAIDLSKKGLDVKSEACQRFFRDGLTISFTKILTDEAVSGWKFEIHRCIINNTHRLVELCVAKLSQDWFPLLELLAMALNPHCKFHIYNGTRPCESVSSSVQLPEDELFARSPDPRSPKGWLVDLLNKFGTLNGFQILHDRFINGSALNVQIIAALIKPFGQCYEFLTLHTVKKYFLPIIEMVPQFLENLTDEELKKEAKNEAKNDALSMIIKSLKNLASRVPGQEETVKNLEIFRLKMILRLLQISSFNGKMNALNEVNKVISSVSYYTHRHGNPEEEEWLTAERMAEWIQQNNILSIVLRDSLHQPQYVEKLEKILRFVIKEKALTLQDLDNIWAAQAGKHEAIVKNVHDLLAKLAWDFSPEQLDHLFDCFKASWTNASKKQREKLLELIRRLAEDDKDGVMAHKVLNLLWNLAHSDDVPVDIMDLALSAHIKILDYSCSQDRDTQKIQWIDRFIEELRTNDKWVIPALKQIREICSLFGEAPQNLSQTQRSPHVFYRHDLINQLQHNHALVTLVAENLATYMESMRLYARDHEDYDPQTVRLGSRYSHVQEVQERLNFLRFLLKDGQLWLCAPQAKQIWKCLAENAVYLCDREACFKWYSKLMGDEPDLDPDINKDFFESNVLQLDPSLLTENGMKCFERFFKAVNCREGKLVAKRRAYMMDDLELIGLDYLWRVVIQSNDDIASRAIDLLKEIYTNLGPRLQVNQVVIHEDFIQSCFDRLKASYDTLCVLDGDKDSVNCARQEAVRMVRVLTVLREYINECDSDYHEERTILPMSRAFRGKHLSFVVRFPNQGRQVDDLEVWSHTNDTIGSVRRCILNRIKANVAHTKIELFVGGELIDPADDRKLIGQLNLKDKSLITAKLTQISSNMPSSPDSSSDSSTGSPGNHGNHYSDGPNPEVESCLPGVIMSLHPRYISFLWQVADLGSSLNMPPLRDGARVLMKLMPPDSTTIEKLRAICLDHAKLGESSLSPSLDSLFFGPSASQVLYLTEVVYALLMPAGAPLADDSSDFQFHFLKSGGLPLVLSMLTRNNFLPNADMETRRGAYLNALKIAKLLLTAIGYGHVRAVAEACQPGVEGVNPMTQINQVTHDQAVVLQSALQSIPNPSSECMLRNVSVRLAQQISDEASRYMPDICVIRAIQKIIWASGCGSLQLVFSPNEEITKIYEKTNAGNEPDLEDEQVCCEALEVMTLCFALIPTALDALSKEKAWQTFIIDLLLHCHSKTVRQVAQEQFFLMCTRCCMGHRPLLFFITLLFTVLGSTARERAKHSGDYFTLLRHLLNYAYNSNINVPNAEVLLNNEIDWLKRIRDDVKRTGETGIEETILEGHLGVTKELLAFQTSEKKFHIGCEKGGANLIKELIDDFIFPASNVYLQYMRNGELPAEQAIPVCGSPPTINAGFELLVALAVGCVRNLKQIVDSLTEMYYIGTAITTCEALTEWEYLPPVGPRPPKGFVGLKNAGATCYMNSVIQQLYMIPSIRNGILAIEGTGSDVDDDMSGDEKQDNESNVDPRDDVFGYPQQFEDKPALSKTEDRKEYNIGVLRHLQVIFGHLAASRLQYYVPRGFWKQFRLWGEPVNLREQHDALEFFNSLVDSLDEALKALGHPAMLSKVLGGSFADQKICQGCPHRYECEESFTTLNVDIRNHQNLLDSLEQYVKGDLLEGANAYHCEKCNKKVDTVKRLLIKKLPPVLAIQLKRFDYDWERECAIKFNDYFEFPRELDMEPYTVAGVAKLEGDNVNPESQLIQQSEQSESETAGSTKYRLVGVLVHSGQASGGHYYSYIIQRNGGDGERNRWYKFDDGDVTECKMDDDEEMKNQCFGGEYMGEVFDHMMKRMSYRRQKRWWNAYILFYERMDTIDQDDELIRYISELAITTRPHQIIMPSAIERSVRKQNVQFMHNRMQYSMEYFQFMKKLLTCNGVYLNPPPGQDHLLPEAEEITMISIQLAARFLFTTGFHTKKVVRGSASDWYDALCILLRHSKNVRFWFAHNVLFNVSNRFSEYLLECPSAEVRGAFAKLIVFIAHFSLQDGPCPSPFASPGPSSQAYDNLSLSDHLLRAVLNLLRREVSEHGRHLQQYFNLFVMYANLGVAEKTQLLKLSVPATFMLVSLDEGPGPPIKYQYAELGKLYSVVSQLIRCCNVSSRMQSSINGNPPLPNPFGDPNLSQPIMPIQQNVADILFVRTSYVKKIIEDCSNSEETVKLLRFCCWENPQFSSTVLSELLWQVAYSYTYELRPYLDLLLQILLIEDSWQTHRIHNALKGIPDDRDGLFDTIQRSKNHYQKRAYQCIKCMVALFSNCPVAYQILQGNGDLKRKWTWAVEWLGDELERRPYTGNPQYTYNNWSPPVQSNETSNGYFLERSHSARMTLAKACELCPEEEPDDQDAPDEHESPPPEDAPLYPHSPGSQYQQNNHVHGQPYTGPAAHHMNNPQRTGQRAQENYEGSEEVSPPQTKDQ

Biological target: STAT3 (human (endogenous in KYSE30 and KYSE510)) (UniProt P40763)
Test: co-IP; reciprocal co-immunoprecipitation from ESCC cell lysates (weak RIPA lysis buffer with protease and phosphatase inhibitors), Dynabeads Protein G, eluate analysed by Western blot

binding	Substance
no binding	USP24 (from UniProt Q9UPU5 1-2620) (enzyme)
no binding	USP9X (from UniProt Q93008 1-2554) (enzyme)
binds	ubiquitin-specific protease 5 (USP5) (from UniProt P45974-1 1-858) (enzyme)
